## Primary screen of a compound library

Values are the deposited “Percent Effect”, in %. The record does not define 0% and 100%; most values in the screen are far below 50% and negative numbers occur (in some assays of this library far below -100). This is an unselected part of the compounds tested. Two or more numbers in one place are separate tests of the same structure; such repeats can differ widely.

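Viability assay of Plasmodium falciparum sporozoites; the read-out is not stated. The concentration is filed as 10 mM, unlikely as a test dose, so the dose is not known. The record gives no direction; compounds that gave an IC50 in retests scored well above the rest, so higher reads as lower viability. Strong results were mostly tested again. About 34,000 compounds were tested under these conditions; 0.84% (about 280) showed 50% or more at least once.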

{"compound": "Fc1cnc(N2CCCC3(CCN(Cc4ccsc4)C3)C2)nc1.O=C(O)C(F)(F)F.O=C(O)C(F)(F)F", "stereo": "configuration not stated", "percent effect": -7.047}
{"compound": "CN(C(=O)CNc1ccc(C#N)cc1)C1CCN(c2ccccn2)CC1", "percent effect": 7.898}
{"compound": "CCC1CCCN(CC(=O)Nc2oc(C)c3c(C)n[nH]c(=O)c23)C1", "stereo": "configuration not stated", "percent effect": "5.431 and -1.028 and -2.598"}
{"compound": "COCCC(=O)N1CCN(CC2CC2)c2ncccc2C1", "percent effect": 7.378}
{"compound": "Cc1nn(C)c(C)c1C1CCCN1C(=O)c1ccc(C(N)=O)cn1", "stereo": "configuration not stated", "percent effect": -5.987}
{"compound": "CN1CCCC(c2ccnc(C(=O)NC3CC3)c2)C1", "stereo": "configuration not stated", "percent effect": -2.653}
{"compound": "CCN1CC2(CC1=O)CN(Cc1cnn(C)c1)CCN(C(=O)C(C)C)C2.O=C(O)C(F)(F)F", "stereo": "configuration not stated", "percent effect": 3.608}
{"compound": "CC(=O)NCCNC(=O)c1cnc(-c2ccc(C)cc2C)s1", "percent effect": 6.439}
{"compound": "CN1CCCN(C(=O)c2nc3sccn3c2-c2ncc[nH]2)CC1", "percent effect": -10.35}
{"compound": "CC1CN(CC(=O)NCc2ccccc2)CCN1Cc1nccn1C", "stereo": "configuration not stated", "percent effect": -4.2}
{"compound": "O=c1ccc2c([nH]1)CCC(NCc1ccncc1)C2", "stereo": "configuration not stated", "percent effect": -7.632}
{"compound": "COc1ccc(C[C@H]2CN(C(=O)CN(C)C)CC[C@H]2OC)cc1.O=C(O)C(F)(F)F", "percent effect": 1.739}
{"compound": "Cn1cnc2c1CCN(Cc1cccc(C(=O)N3CCCCC3)c1)C2", "percent effect": 8.554}
{"compound": "Cn1ccnc1CN1CCN(c2ccc(C#N)cc2F)CC1", "percent effect": 16.46}
{"compound": "C[C@@H]1CN(C(=O)c2ccsc2)C[C@]12CCN(c1ccsc1)C2=O", "percent effect": 11.19}
{"compound": "CCn1ncnc1C(C)Nc1cc(C2CCNCC2)nc(C)n1", "stereo": "configuration not stated", "percent effect": -3.581}
{"compound": "Cc1cnc(NC2CCc3c(ccc(=O)n3C)C2)nc1", "stereo": "configuration not stated", "percent effect": -3.73}
{"compound": "CN1CCC(NC(=O)Nc2ccc(Br)c(F)c2)C1=O", "stereo": "configuration not stated", "percent effect": 5.329}
{"compound": "CCOc1cc(F)ccc1NC(=O)NCC(c1cnn(C)c1)N(C)C", "stereo": "configuration not stated", "percent effect": 5.006}
{"compound": "[H][C@@]12C[C@H](C)O[C@]1([H])CCN(C(=O)C1=CCCC1)C2", "percent effect": 18.14}
{"compound": "COc1ccccc1COCC(O)CN(C)Cc1cccc(Cl)c1", "stereo": "configuration not stated", "percent effect": -15.71}
{"compound": "O=C(O)C(F)(F)F.[H][C@]12CCC[C@@H](CNc3nccn3C)[C@@]1([H])CN(Cc1cccnc1)C2", "percent effect": 6.177}
{"compound": "O=c1cc(N2CCNCC2)cnn1CCc1ccc(F)cc1", "percent effect": "-29.24 and -24.74"}
{"compound": "COCC(=O)N(C)Cc1ccc(Cl)c(Cl)c1", "percent effect": -18.38}
{"compound": "Fc1cnc(N2CCOC3(CCN(Cc4ccsc4)CC3)C2)nc1.O=C(O)C(F)(F)F.O=C(O)C(F)(F)F", "percent effect": -5.034}
{"compound": "COCCN(Cc1ccoc1)C(=O)c1c(F)cccc1F", "percent effect": -0.4476}
{"compound": "Cc1cccc(CN2CCC3(CC2)CC(c2cccnc2)C(=O)N3C)n1.O=C(O)C(F)(F)F.O=C(O)C(F)(F)F", "stereo": "configuration not stated", "percent effect": -6.066}
{"compound": "CCCc1n[nH]c(C2CN(CCCS(=O)(=O)N(C)C)CCO2)n1", "stereo": "configuration not stated", "percent effect": 2.894}
{"compound": "c1ccc(Cn2ccnc2CN2CCCC2c2noc(C3CC3)n2)cc1", "stereo": "configuration not stated", "percent effect": -28.68}
{"compound": "COCc1ncn2c1CN(C(=O)c1ccc[nH]1)CC2", "percent effect": 3.246}
{"compound": "Cc1ccccc1-c1cncc(C2CCN(S(=O)(=O)N(C)C)CC2)n1", "percent effect": -9.159}
{"compound": "Cc1cccc(C(=O)N2CCCCC2c2ccc(CN(C)C)cc2)n1", "stereo": "configuration not stated", "percent effect": 13.2}
{"compound": "Cc1nnc2n1CCN(Cc1csc(CC(=O)N(C)C)n1)C2", "percent effect": 0.5848}

4 of the entries, repeated:

- CN(C(=O)CNc1ccc(C#N)cc1)C1CCN(c2ccccn2)CC1 | 7.898%
- CCC1CCCN(CC(=O)Nc2oc(C)c3c(C)n[nH]c(=O)c23)C1 (configuration not stated) | 5.431% and -1.028% and -2.598%
- C[C@@H]1CN(C(=O)c2ccsc2)C[C@]12CCN(c1ccsc1)C2=O | 11.19%
- Cn1cnc2c1CCN(Cc1cccc(C(=O)N3CCCCC3)c1)C2 | 8.554%

Source: ChEMBL document CHEMBL3988442, “University of Dundee, Small-Polar-MMV Screening Library” (2021).